Holding throughout (test): DAPPL (digital affinity profiling via proximity ligation, sequencing)
Common to all, as to details: 10 mM Tris-HCl pH 7.5, 50 mM NaCl, 1 mM DTT, 4% glycerol, room temperature, 30 min; GST-TFs on glutathione beads, 16-mer random dsDNA library, 0.1% …; high values mean tight binding; double strand, one strand shown; scale: fold enrichment (6-mer frequency, TF over GST control)

Protein sequences, listed by entry. Tags and fused reporters are not part of them. Lines headed by an entry give the natural chain unless they say otherwise; changes in a name come on top.
UniProt P32519: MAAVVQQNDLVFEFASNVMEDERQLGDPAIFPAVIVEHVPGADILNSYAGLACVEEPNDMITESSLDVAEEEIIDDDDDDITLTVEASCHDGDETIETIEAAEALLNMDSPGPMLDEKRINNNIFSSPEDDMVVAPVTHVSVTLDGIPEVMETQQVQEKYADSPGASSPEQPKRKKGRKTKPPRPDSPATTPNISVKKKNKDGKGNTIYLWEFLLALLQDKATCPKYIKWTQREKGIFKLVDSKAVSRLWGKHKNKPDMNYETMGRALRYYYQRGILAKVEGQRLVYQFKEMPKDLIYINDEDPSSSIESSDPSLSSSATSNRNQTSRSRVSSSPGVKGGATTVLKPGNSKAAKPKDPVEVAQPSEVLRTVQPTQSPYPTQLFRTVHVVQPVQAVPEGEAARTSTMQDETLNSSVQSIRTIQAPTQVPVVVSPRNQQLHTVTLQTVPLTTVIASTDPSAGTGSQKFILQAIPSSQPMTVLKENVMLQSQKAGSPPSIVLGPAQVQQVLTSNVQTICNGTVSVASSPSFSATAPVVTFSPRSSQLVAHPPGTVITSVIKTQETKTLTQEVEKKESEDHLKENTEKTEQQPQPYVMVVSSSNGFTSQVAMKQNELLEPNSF
UniProt P50549: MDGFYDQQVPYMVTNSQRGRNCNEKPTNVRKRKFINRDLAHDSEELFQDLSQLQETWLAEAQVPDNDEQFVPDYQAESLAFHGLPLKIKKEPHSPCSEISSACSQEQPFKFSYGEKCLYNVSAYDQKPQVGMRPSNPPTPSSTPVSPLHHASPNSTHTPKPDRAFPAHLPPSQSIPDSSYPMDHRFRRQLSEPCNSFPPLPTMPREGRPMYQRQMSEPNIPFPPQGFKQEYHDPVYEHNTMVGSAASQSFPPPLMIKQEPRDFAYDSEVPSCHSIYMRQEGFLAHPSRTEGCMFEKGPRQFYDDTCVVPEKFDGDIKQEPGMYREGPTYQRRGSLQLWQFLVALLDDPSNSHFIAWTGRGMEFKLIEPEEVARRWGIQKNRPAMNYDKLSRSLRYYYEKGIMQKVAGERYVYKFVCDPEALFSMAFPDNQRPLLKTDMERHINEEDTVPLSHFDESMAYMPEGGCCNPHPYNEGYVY

The target of one assay is ELF1 (UniProt P32519).
The next assay deals with T1, ELK4 (UniProt P28324-2).
T1 sequence: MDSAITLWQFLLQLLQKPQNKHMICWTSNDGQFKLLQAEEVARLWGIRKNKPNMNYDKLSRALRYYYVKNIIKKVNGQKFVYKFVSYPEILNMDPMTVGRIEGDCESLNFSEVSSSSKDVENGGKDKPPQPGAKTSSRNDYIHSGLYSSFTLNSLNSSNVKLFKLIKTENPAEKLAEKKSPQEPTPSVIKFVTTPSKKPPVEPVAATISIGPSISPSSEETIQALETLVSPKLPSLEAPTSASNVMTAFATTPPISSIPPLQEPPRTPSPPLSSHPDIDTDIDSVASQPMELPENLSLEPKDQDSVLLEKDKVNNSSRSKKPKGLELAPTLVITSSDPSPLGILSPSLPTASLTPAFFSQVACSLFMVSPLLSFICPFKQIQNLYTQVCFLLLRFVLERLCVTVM

Another assay concerns the target T2, ETV4 (UniProt P43268).
T2 sequence: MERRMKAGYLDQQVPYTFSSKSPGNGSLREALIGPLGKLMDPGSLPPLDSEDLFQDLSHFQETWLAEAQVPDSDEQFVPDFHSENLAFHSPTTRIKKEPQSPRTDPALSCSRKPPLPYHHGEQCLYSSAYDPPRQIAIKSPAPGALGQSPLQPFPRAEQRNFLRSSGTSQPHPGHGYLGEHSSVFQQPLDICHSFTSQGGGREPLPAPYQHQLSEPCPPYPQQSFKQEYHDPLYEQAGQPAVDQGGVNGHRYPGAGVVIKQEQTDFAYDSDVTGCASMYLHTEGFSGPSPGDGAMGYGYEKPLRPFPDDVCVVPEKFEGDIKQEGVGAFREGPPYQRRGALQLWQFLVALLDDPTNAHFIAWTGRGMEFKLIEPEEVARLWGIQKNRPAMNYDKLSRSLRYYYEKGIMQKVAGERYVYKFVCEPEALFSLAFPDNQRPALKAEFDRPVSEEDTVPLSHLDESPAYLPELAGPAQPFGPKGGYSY

For a further assay, the target named is ETV1 (UniProt P50549).
The target in a further assay is T3, ERF (UniProt P50548).
T3 sequence: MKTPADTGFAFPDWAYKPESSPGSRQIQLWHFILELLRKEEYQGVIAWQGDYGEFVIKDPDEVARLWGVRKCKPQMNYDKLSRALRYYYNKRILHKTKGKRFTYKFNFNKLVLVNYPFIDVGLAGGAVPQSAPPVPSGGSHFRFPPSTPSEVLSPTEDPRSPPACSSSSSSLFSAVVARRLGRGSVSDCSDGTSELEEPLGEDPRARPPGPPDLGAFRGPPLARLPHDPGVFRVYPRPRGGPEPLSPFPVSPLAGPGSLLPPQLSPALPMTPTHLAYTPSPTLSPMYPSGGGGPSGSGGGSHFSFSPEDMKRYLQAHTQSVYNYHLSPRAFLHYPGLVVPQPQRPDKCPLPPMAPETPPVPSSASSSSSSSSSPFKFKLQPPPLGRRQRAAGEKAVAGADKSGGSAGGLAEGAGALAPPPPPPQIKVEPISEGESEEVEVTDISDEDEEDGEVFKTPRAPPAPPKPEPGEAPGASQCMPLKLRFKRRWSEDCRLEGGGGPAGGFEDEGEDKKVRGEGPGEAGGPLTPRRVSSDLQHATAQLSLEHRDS

The list shows a part of the results, in another mix than the full data. For part of these data: At the low end of the ranking the order means little. The list shows a part of the results. For part of these data: The exact form of the protein is not confirmed.

In the case of CCAACT, the binding signal with ELF1 turned out to be 1.25; with ELK4 it was 1.27; in the assay with ETV4, 1.17; with ETV1, 1.21.

As to CTAACC, the binding signal amounted to 1.12 with ELF1, 1 with ELK4, 1.2 with ETV4 and 1.16 in the assay with ETV1.

As for ATCCGT, the binding signal in the assay with ELF1 worked out at 0.975; with ELK4, 0.89; in the assay with ETV4, 0.946; with ETV1, 0.952; with ERF it was 0.944.

Turning to GCCATT, the binding signal in the assay with ELF1 came to 0.949; in the assay with ELK4 it was 1.07; with ETV4 it was 0.975; with ETV1, 0.994.

Regarding TTATGC, the binding signal in the assay with ELK4 worked out at 1.33; with ETV4, 1.37; with ERF, 1.16.

As to CGGATC, the binding signal with ELF1 stood at 0.921; with ELK4, 0.867; in the assay with ETV4, 0.989; with ETV1, 0.971; with ERF it was 0.877.

Regarding AGTGAC, the binding signal with ELF1 turned out to be 0.973; with ELK4, 0.998; with ETV4, 1.06; with ETV1, 1.03; with ERF, 0.997.

On to ATTCCT, for which the binding signal in the assay with ELF1 is 1.42; in the assay with ELK4 it was 1.22; in the assay with ETV4, 1.32; with ETV1, 1.28; in the assay with ERF, 1.2.

With AGGACC, the binding signal with ELF1 stood at 1.06; with ELK4, 0.931; with ETV4 it was 1.08; with ETV1, 0.966; in the assay with ERF it was 0.949.

Turning to CGCCCC, the binding signal with ELK4 came out at 1.06; with ETV4, 1.24; with ERF, 1.28.

For CTAGGC, the values for the binding signal with ELK4, with ETV4 and with ERF were 0.981, 1.14 and 0.98, respectively.

Turning to TCCGAA, the binding signal came to 1.23 in the assay with ELK4, 1.24 with ETV4 and 1.36 in the assay with ERF.

Consider GAAACC, for which the binding signal was 0.863 with ELK4, 0.988 with ETV4 and 0.994 with ERF.

Turning to GTTGCT, the binding signal with ELK4 worked out at 1.33; in the assay with ETV4 it was 1.26; with ERF it was 1.27.

In the case of GGATAC, the binding signal in the assay with ELF1 came out at 0.962; in the assay with ELK4, 0.889; with ETV4, 1.01; in the assay with ERF it was 0.909.

As to ACGACC, the binding signal with ELK4 came out at 1.14; with ETV4 it was 1.23; with ERF, 1.11.

Regarding GGCCTC, the binding signal in the assay with ELK4 is 1.17; in the assay with ETV4 it was 1.16; with ERF, 1.12.

With GTCTCT, the binding signal with ELK4 was determined as 1.18; with ETV4, 1.31; with ERF, 1.16.

For the sequence TTCACA, the binding signal turned out to be 1.16 with ELF1, 1.28 in the assay with ELK4, 1.21 in the assay with ETV4 and 1.26 in the assay with ERF.

As for AACACT, the binding signal was 1.29 with ELK4, 1.26 with ETV4 and 1.21 with ERF.

For GTCCGG, the binding signal with ELF1 worked out at 0.853; in the assay with ELK4, 0.85; with ETV4, 0.956; with ERF, 0.873.

Consider AGTATG, for which the binding signal is 1.04 in the assay with ELF1, 0.99 with ELK4, 0.999 with ETV4 and 1.02 with ERF.

In the case of TCATCA, the results for the binding signal with ELK4, with ETV4 and in the assay with ERF were 1.26, 1.19 and 1.23, respectively.

As to ATGCGA, the binding signal with ELK4 is 1.33; with ETV4, 1.25; with ERF, 1.16.

Take AGTGCC: the binding signal with ELF1 came out at 0.995; with ELK4, 0.971; with ETV4, 1.06; with ERF, 0.928.

With TGCAAT, the binding signal in the assay with ELK4 amounted to 1.28; in the assay with ETV4 it was 1.24; in the assay with ERF it was 1.14.

For the sequence TGCCCT, the figures for the binding signal with ELK4, with ETV4 and in the assay with ERF were 1.25, 1.12 and 0.976, respectively.

Take GTATCA: the binding signal with ELK4 stood at 1.12; in the assay with ETV4, 1.05; with ERF, 0.965.

Turning to GTTACC, the binding signal with ELK4 amounted to 0.984; with ETV4 it was 1.08; with ERF, 0.971.

Regarding TACATA, the figures for the binding signal with ELK4, with ETV4 and in the assay with ERF were 1.22, 1.21 and 1.33, respectively.

Consider ATTAGT, for which the binding signal worked out at 1.2 with ELK4, 1.05 with ETV4 and 0.956 with ERF.

For CTCTCG, the binding signal in the assay with ELK4 worked out at 1.41; with ETV4, 1.45; with ERF, 1.36.

As for CGGAAC, the binding signal worked out at 1.04 with ELF1, 0.964 with ELK4, 1.15 with ETV4 and 0.914 with ERF.

For the sequence TCAGTT, the binding signal with ELF1 stood at 0.995; in the assay with ELK4, 1.08; with ETV4 it was 0.996; in the assay with ERF, 0.97.

TGTATA: the values for the binding signal with ELK4, with ETV4 and in the assay with ERF were 1.22, 1.1 and 1.24, respectively.

On to CACGCG, for which the binding signal with ELK4 is 1.24; in the assay with ETV4 it was 1.27; in the assay with ERF it was 0.995.

As to ATTTTG, the binding signal stood at 1.31 with ELK4, 1.21 in the assay with ETV4 and 1.24 with ERF.

Consider CGGATG, for which the binding signal in the assay with ELK4 came to 1.31; in the assay with ETV4 it was 1.92; with ERF it was 1.39.

As for ATATCT, the binding signal with ELK4 was found to be 1.2; with ETV4, 1.24; with ERF it was 1.23.

On to TATGTG, for which the values for the binding signal with ELK4, in the assay with ETV4 and with ERF were 1.17, 1.09 and 1.07, respectively.

As for CGTACA, the results for the binding signal with ELK4, in the assay with ETV4 and in the assay with ERF were 1.24, 1.22 and 1.21, respectively.

As for CCCCAA, the figures for the binding signal with ELK4, in the assay with ETV4 and in the assay with ERF were 1.16, 1.1 and 1.06, respectively.

Consider AATTAC, for which the binding signal with ELK4 is 1.27; with ETV4, 1.23; with ERF, 1.35.

Regarding ATCCTT, the binding signal in the assay with ELK4 was 1.77; in the assay with ETV4, 1.61; with ERF, 1.56.

Regarding ATAATA, the binding signal with ELK4 is 1.14; with ETV4, 1.17; with ERF, 1.32.

ATTAGG: the binding signal amounted to 1.06 in the assay with ELK4, 0.985 with ETV4 and 1.26 with ERF.

Consider TCTGCG, for which the binding signal with ELK4 is 1.14; in the assay with ETV4, 1.19; with ERF, 1.07.

TTACAT: the figures for the binding signal with ELK4, in the assay with ETV4 and in the assay with ERF were 1.34, 1.43 and 1.41, respectively.

As for GAACTG, the figures for the binding signal in the assay with ELK4, in the assay with ETV4 and in the assay with ERF were 0.956, 1.04 and 0.953, respectively.

In the case of ATGACC, the binding signal came to 1.54 with ELK4, 1.62 with ETV4 and 1.42 in the assay with ERF.

Regarding CTATAG, the results for the binding signal with ELK4, with ETV4 and with ERF were 1.14, 1.04 and 1.03, respectively.

Turning to AATGGA, the binding signal was 0.824 with ELK4, 1.07 in the assay with ETV4 and 0.934 with ERF.

CCTCCA: the binding signal is 1.37 with ELF1, 1.47 with ELK4 and 1.39 in the assay with ETV4.

Turning to TAAGTT, the binding signal with ELF1 came to 1.3; in the assay with ELK4 it was 1.22; in the assay with ETV4 it was 1.29.

As for CGGAAA, the binding signal is 1.87 in the assay with ELF1, 1.55 with ELK4, 2.07 with ETV4 and 1.77 in the assay with ERF.
